Results are given in words; binding and its absence hold for the method and conditions named. For some assays here: Binding seen in cells or lysates may run through a third protein. Some entries that bind do so weakly or less than the wild type. For some assays here: Sequences can lack the tags named with a protein.

Assay [1] concerns the target T1, SAG114 SnRK3.25 fused with the GAL4 binding domain (pGBT9-SAG114) (Arabidopsis thaliana) (UniProt Q8W1D5).
T1 sequence: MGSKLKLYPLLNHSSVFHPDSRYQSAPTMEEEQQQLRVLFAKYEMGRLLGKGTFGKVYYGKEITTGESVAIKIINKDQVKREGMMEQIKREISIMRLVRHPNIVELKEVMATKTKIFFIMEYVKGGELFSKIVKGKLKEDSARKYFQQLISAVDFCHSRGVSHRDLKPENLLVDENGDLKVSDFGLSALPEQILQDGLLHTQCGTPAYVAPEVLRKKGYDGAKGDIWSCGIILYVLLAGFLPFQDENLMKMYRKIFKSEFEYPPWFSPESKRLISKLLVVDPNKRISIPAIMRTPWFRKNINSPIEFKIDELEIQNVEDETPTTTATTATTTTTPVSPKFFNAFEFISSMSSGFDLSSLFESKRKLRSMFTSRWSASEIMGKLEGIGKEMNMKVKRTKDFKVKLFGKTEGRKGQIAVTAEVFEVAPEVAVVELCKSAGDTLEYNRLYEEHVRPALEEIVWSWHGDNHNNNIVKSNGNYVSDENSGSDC
Description: two-hybrid; pGAD424-SAG113 (GAL4 activation domain) in PJ69-4α mated with pGBT9-SAG114 (GAL4 binding domain) in PJ69-4A; diploid cells streaked on SD/-Trp/-Leu/-His/-Ade plate.

The target in assay [2] is T2, SAG114-YFPC (Arabidopsis thaliana) (UniProt Q8W1D5).
T2 sequence: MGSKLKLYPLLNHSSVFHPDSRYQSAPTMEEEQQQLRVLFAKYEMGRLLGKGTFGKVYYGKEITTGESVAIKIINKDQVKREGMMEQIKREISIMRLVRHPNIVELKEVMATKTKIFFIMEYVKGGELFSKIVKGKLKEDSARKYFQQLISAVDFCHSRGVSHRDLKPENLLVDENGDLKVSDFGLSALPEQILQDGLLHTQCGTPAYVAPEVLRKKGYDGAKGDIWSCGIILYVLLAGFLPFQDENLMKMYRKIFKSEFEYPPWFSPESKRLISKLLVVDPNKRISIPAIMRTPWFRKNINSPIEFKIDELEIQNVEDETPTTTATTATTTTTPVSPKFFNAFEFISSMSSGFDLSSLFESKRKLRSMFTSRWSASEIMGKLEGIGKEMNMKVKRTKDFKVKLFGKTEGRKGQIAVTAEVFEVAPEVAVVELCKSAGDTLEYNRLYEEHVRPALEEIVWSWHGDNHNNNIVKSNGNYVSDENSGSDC
Description: split reporter; BiFC of SAG113-YFPN and SAG114-YFPC co-expressed in Arabidopsis mesophyll protoplasts; YFP fluorescence imaged 2 d after infiltration.

B1: SAG113 PP2C fused with the GAL4 activation domain (pGAD424-SAG113) (enzyme, UniProt Q9FIF5 1-413)
chain: MAEICYENETMMIETTATVVKKATTTTRRRERSSSQAARRRRMEIRRFKFVSGEQEPVFVDGDLQRRRRRESTVAASTSTVFYETAKEVVVLCESLSSTVVALPDPEAYPKYGVASVCGRRREMEDAVAVHPFFSRHQTEYSSTGFHYCGVYDGHGCSHVAMKCRERLHELVREEFEADADWEKSMARSFTRMDMEVVALNADGAAKCRCELQRPDCDAVGSTAVVSVLTPEKIIVANCGDSRAVLCRNGKAIALSSDHKPDRPDELDRIQAAGGRVIYWDGPRVLGVLAMSRAIGDNYLKPYVISRPEVTVTDRANGDDFLILASDGLWDVVSNETACSVVRMCLRGKVNGQVSSSPEREMTGVGAGNVVVGGGDLPDKACEEASLLLTRLALARQSSDNVSVVVVDLRRDT
Turning to B1, in assay [1], the binding entry is given as “binds”.

B2: SAG113-YFPN (enzyme, UniProt Q9FIF5 1-413)
chain: MAEICYENETMMIETTATVVKKATTTTRRRERSSSQAARRRRMEIRRFKFVSGEQEPVFVDGDLQRRRRRESTVAASTSTVFYETAKEVVVLCESLSSTVVALPDPEAYPKYGVASVCGRRREMEDAVAVHPFFSRHQTEYSSTGFHYCGVYDGHGCSHVAMKCRERLHELVREEFEADADWEKSMARSFTRMDMEVVALNADGAAKCRCELQRPDCDAVGSTAVVSVLTPEKIIVANCGDSRAVLCRNGKAIALSSDHKPDRPDELDRIQAAGGRVIYWDGPRVLGVLAMSRAIGDNYLKPYVISRPEVTVTDRANGDDFLILASDGLWDVVSNETACSVVRMCLRGKVNGQVSSSPEREMTGVGAGNVVVGGGDLPDKACEEASLLLTRLALARQSSDNVSVVVVDLRRDT
For B2, the binding entry in assay [2] is listed as “binds”.
